{
  "source": "patent US20250257069A1",
  "about": "“JAK INHIBITOR ANALOGS, FORMULATIONS, AND USES THEREOF” (THE REGENTS OF THE UNIVERSITY OF MICHIGAN, priority 2022, published 2025)",
  "key": {"HEL 92.1.7 cells": {"system": "HEL 92.1.7 cells", "experiment": "Anti-proliferative assay in HEL cells (CellTiter 96 Aqueous)", "type": "cell-based", "conditions": "Homo sapiens, 72 h, 3 days", "protocol": "(§1) Cell Culture and anti-proliferative assay. Human cell lines HEL 92.1.7 and SET-2 were obtained from American Type Culture Collection (ATCC) and Leibniz Institute DSMZ-German Collection of Microorganisms and Cell Cultures GmbH, respectively. HEL and SET-2 cells were cultured in RMPI 1640 medium (Life Technologies Corporation, New York, USA) supplemented with 10% or 20% fetal bovine serum (FBS, Life Technologies Corporation, New York, USA), respectively. Cells were incubated at 37° C. in a humidified atmosphere of 5% CO2. Cells were seeded into 96-well culture plates at the density of approximately 8000 cells per well and treated with various concentrations of compounds for 3 days in final volumes of 200 μL. Upon end point, cells were treated using CellTiter 96 Aqueous Assay Reagents (Promega Corporation, Madison, USA) according to the provider's instruction. Briefly, MITS and PMS solution were thawed and mixed (20:1, v/v) before use and pipet appropriate amount of the mixed solution into each well of the 96 well assay plates. The plates were incubated for 1-4 hours at 37° C. in a humidified atmosphere of 5% CO2. The absorbance at 490 nm was recorded using CYTATION 5 imaging reader (BioTek, VT, USA). IC50 values were calculated using percentage of growth versus untreated control."}, "SET-2 cells": {"system": "SET-2 cells", "experiment": "Anti-proliferative assay in SET-2 cells (CellTiter 96 Aqueous)", "type": "cell-based", "conditions": "Homo sapiens, 72 h, 3 days", "protocol": "as §1"}},
  "data": [
    {"molecule": "CCS(=O)(=O)N1CC(CC#N)(n2cc(-c3ncnc4[nH]ccc34)cn2)C1", "note": "[Baricitinib]", "values": [
      {"measurement": "IC50", "setting": "HEL 92.1.7 cells", "result": 340, "unit": "nM"},
      {"measurement": "IC50", "setting": "SET-2 cells", "result": "~7.84", "unit": "nM"}
    ]}
  ]
}
